Chains of the proteins cited; added tags and fusions are not shown. A line that says so, or that is headed by a name, gives the form on record, which may keep a tag or linker. Residues count along the entry.
UniProt O15446, 131-510: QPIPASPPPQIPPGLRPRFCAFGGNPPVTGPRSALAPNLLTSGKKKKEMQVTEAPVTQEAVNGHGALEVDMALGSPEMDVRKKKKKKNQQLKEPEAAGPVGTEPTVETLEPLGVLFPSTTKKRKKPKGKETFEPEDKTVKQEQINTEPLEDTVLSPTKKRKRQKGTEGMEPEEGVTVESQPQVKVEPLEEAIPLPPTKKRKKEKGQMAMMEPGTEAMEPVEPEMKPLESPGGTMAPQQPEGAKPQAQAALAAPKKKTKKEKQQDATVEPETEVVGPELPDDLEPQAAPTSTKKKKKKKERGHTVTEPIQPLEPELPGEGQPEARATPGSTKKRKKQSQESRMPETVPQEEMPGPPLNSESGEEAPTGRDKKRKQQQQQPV
UniProt O95602, 1060-1155: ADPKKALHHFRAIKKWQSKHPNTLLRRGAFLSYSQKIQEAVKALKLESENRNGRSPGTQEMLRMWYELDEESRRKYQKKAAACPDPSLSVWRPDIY
RPA49FL/RPA34(1-343) (Homo sapiens), one chain, as listed by the source, chain 1 of 2: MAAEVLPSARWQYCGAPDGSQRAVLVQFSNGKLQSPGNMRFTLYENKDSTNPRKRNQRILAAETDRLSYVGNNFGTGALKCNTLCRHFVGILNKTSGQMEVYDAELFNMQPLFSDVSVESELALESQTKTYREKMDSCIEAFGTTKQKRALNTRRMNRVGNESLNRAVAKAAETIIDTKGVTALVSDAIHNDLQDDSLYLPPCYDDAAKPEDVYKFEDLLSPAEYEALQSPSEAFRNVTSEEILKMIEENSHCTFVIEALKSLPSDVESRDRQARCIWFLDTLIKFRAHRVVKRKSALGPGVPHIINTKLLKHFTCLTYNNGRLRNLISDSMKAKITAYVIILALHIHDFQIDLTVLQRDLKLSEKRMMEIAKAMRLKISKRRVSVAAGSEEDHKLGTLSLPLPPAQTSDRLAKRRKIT
Core Factor (Saccharomyces cerevisiae), one chain, as listed by the source, chain 1 of 3: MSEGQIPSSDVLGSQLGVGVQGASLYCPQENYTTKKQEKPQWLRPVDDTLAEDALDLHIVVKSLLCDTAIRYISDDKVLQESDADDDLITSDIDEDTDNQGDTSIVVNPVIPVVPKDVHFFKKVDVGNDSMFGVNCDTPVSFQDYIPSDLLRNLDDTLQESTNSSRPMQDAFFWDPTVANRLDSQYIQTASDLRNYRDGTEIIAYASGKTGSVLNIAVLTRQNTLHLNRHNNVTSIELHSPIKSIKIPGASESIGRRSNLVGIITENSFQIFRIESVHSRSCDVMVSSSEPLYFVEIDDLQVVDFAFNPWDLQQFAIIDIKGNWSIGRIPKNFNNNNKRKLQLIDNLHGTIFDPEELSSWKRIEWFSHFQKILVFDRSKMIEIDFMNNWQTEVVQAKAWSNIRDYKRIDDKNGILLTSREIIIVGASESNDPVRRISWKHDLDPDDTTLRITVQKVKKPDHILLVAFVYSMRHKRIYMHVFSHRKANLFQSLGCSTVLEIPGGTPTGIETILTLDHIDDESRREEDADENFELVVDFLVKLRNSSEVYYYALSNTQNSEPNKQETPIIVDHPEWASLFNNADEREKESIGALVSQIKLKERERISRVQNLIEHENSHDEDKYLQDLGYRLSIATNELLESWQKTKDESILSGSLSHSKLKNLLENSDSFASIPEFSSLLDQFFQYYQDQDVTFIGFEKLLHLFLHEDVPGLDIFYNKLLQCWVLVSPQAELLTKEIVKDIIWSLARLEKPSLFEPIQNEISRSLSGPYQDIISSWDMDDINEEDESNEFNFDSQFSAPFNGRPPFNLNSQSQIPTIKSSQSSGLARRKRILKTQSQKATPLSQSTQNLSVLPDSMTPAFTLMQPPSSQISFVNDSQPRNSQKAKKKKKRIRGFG
Core Factor (Saccharomyces cerevisiae), one chain, as listed by the source, chain 2 of 3: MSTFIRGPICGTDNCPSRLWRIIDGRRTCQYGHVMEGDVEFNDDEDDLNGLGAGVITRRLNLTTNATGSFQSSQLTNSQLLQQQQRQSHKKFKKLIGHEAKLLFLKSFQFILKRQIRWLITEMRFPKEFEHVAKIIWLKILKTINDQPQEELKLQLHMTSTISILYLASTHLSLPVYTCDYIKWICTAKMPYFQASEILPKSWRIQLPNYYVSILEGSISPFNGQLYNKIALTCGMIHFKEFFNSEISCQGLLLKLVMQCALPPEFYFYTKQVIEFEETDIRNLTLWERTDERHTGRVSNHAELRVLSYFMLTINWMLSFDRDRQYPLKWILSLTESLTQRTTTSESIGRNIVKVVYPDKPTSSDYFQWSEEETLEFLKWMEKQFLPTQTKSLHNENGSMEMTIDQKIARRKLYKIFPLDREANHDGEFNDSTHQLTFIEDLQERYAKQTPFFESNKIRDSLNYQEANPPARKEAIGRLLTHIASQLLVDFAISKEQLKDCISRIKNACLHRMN
A49/A34.5 heterodimer (Saccharomyces cerevisiae), one chain, as listed by the source, chain 2 of 2: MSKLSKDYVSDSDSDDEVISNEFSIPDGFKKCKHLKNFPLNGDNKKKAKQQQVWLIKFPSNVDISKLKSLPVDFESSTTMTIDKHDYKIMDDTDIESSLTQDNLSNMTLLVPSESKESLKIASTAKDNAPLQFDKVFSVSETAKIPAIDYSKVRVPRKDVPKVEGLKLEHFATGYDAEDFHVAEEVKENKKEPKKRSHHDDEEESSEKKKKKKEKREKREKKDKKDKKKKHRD
RPA49FL/RPA34(1-343) (Homo sapiens), one chain, as listed by the source, chain 2 of 2: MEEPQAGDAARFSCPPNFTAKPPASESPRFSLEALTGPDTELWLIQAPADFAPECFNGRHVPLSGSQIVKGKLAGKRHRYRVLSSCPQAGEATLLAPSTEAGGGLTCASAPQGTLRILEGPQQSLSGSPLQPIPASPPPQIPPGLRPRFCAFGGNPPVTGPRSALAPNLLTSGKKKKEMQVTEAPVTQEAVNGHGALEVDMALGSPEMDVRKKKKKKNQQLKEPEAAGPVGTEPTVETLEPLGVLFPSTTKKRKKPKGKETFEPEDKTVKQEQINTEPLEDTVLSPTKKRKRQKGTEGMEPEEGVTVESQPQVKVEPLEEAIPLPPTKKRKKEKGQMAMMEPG
Core Factor (Saccharomyces cerevisiae), one chain, as listed by the source, chain 3 of 3: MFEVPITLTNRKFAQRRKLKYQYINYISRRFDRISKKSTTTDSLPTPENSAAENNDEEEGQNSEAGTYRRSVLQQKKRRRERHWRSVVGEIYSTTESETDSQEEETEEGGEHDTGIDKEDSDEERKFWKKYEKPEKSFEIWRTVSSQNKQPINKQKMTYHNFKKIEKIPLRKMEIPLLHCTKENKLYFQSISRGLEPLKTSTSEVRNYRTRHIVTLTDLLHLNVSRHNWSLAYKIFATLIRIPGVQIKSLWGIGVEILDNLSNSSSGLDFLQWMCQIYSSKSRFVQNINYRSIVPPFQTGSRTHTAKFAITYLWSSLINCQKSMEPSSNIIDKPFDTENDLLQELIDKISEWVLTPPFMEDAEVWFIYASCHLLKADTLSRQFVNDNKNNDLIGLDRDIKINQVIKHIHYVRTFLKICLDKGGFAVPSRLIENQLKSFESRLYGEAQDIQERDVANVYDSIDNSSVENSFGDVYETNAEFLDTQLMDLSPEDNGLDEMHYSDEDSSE
A49/A34.5 heterodimer (Saccharomyces cerevisiae), one chain, as listed by the source, chain 1 of 2: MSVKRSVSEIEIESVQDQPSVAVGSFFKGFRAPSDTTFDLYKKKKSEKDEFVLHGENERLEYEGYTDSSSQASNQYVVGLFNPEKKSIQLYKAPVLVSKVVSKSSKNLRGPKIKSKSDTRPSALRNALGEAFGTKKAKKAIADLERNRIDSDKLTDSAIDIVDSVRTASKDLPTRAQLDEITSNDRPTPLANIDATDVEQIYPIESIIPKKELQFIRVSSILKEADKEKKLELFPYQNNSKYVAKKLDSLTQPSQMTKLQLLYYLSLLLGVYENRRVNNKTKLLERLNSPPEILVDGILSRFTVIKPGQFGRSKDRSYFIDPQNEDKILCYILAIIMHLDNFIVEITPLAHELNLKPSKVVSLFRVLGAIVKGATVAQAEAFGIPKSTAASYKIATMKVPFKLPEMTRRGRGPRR

According to article PMC9438803 (Life Science Alliance, 2021):

Key:
Test in all cases: EMSA
[1] = tested on: RPA49FL/RPA34(1-343) (Homo sapiens); conditions: EMSA: 100 fmol DNA, up to 50x protein, RT 30 min; buffer 1: 10 mM Tris pH 7.5, 50 mM NaCl, 1 mM MgCl2, 4% glycerol, 0.5 mM EDTA, 0.5 mM DTT; recombinant …; protein details: N-term 6xHis on RPA49, RPA34 untagged; label: 5'-Cy5 on strand 1
[2] = biological target: RPA34(131-510) (Homo sapiens) (UniProt O15446); conditions: EMSA: 100 fmol DNA, up to 50x protein, RT 30 min; buffer 1: 10 mM Tris pH 7.5, 50 mM NaCl, 1 mM MgCl2, 4% glycerol, 0.5 mM EDTA, 0.5 mM DTT; recombinant …; residues 131-510; protein details: N-term 6xHis; label: 5'-Cy5 on strand 1
[3] = biological target: dock II full-length (RPA1 foot HMG-like domain) (Homo sapiens) (UniProt O95602); conditions: residual binding at 50x protein excess; EMSA: 100 fmol DNA, up to 50x protein, RT 30 min; buffer 1: 10 mM Tris pH 7.5, 50 mM NaCl, 1 mM MgCl2, 4% glycerol, 0.5 mM EDTA, 0.5 mM DTT; recombinant protein; residues 1060-1155; protein details: C-term His-MBP; label: 5'-Cy5 on strand 1
[4] = tested on: A49/A34.5 heterodimer (Saccharomyces cerevisiae); conditions: EMSA: 100 fmol DNA, up to 50x protein, RT 30 min; buffer 1: 10 mM Tris pH 7.5, 50 mM NaCl, 1 mM MgCl2, 4% glycerol, 0.5 mM EDTA, 0.5 mM DTT; recombinant …; protein details: C-term 6xHis on A49; label: 5'-Cy5 on strand 1
MBP-6xHis tag only = conditions: negative control; EMSA: 100 fmol DNA, up to 50x protein, RT 30 min; buffer 1: 10 mM Tris pH 7.5, 50 mM NaCl, 1 mM MgCl2, 4% glycerol, 0.5 mM EDTA, 0.5 mM DTT; recombinant protein; protein details: MBP-6xHis; label: 5'-Cy5 on strand 1
[5] = tested on: Core Factor (Saccharomyces cerevisiae); conditions: positive control; EMSA: 100 fmol DNA, up to 50x protein, RT 30 min; buffer 1: 10 mM Tris pH 7.5, 50 mM NaCl, 1 mM MgCl2, 4% glycerol, 0.5 mM EDTA, 0.5 mM DTT; recombinant protein; label: 5'-Cy5 on strand 1

## CTGGAACAACACTCAACCCTATCTCGGTCTATTCTTTTGA (double strand) [EMSA-DNA 40 bp]
[1]
  binding result: binds
[2]
  binding result: binds
[3]
  binding result: binds more weakly
[4]
  binding result: binds
MBP-6xHis tag only
  binding result: no binding
[5]
  binding result: binds

For part of these data: The comparison behind a weaker result is the experiment's own reference, which may not be listed here. For part of these data: Construct, isoform or probe ends are uncertain for at least one entry. For part of these data: Negatives hold for the conditions tested. For part of these data: At least one verdict was read from the data and is not stated in words by the source.
